Data source: PubChem BioAssay AID504764 (Drosophila RNAi Screening Center, 2011)
The deposit covers about 22,000 reagents; below is a random part of those with a known target gene and a result. Of all reagents, 403 (1.9%) were called active. 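Unnormalised raw counts per well; ratio z-scores behind the hit calls and whether each hit raises or lowers signal are not deposited.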 Reagents against one gene are numbered here. Not stated in the record: the amount of reagent.

- Aim: 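Genes whose knock-down alters Notch-dependent transcription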 (primary screen)
- Cells: Drosophila Kc167 cells
- Knock-down reagent: long dsRNA against Drosophila genes
- Time to read-out: about 5 days (4 days dsRNA, then 24 h after transfection)
- Treatment: transfection of constitutively active membrane-tethered Notch lacking the extracellular domain, read 24 h later
- Read-out: 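Firefly luciferase from an E(spl)m3 reporter with active Notch, plus control-promoter and uninduced reporter wells for normalisation; unnormalised counts, duplicate wells a and b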
- Scale: induced reporter light, run 1, well a and induced reporter light, run 1, well b: higher = more light from the Notch target reporter with active Notch; control promoter light, run 1, well a and control promoter light, run 1, well b: higher = more light from the viral control promoter (cell number, transfection, viability); uninduced reporter light, run 1, well a: higher = more light from the Notch target reporter without active Notch
- Hit rule: 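Hit if the duplicate-averaged log2 ratio of induced to control-promoter light gives a plate-wise z beyond ±2, or induced to uninduced beyond ±1.8; weak-control or discordant-duplicate wells dropped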
- Calls: active = modifier hit (raised or lowered Notch signal); inactive = not a hit

| Target gene | dsRNA no. | induced reporter light, run 1, well a | induced reporter light, run 1, well b | control promoter light, run 1, well a | control promoter light, run 1, well b | uninduced reporter light, run 1, well a | Call |
| --- | --- | --- | --- | --- | --- | --- | --- |
| CG17742 (retired record) (GeneID 38787) | 1 | 10550 | 8510 | 13050 | 11760 | 2792 | inactive |
| CG3894 (GeneID 37959) | 1 | 78750 | 67320 | 72150 | 94780 | 7685 | inactive |
| CG3894 (GeneID 37959) | 2 | 1.77e5 | 1.99e5 | 3.00e5 | 3.13e5 | 12005 | inactive |
| CG3894 (GeneID 37959) | 3 | 2.04e5 | 2.15e5 | 1.88e5 | 2.09e5 | 12485 | inactive |
| CG15308 (GeneID 50415) | 1 | 79440 | 97210 | 1.05e5 | 1.24e5 | 6295 | inactive |
| Shmt (GeneID 31524) | 1 | 1.32e5 | 1.55e5 | 2.51e5 | 2.63e5 | 10890 | inactive |
| bc10 (GeneID 38628) | 1 | 2.27e5 | 2.31e5 | 4.24e5 | 3.00e5 | 17515 | inactive |
| CG4627 (GeneID 36457) | 1 | 86230 | 1.08e5 | 1.15e5 | 1.10e5 | 9640 | inactive |
| krz (GeneID 53554) | 1 | 1.24e5 | 1.53e5 | 1.89e5 | 2.22e5 | 9775 | inactive |
| CG15882 (GeneID 32895) | 1 | 79050 | 79845 | 97565 | 1.00e5 | 9355 | inactive |
| CG12883 (GeneID 43326) | 1 | 1.81e5 | 1.45e5 | 2.33e5 | 2.22e5 | 16415 | inactive |
| CG9536 (GeneID 33904) | 1 | 1.71e5 | 1.87e5 | 1.53e5 | 1.82e5 | 19085 | inactive |
| alph (GeneID 43481) | 1 | 1.79e5 | 2.24e5 | 2.80e5 | 2.57e5 | 12130 | inactive |
| eIF4E3 (GeneID 38923) | 1 | 90285 | 1.02e5 | 72995 | 29470 | 11935 | inactive |
| CG17145 (GeneID 40215) | 1 | 1.12e5 | 99245 | 87745 | 96070 | 7510 | inactive |
| phu (GeneID 41135) | 1 | 86445 | 77055 | 81685 | 88360 | 6330 | inactive |
| Tmx3 (GeneID 39775) | 1 | 1.41e5 | 1.74e5 | 1.61e5 | 1.66e5 | 12805 | inactive |
| CG10958 (GeneID 31736) | 1 | 2.92e5 | 2.88e5 | 3.96e5 | 3.86e5 | 16970 | inactive |
| Naa30B (GeneID 317976) | 1 | 1.22e5 | 1.53e5 | 2.45e5 | 2.84e5 | 10805 | inactive |
| CG14647 (GeneID 40558) | 1 | 1.19e5 | 85650 | 68620 | 78810 | 7890 | inactive |
| eve (GeneID 36039) | 1 | 1.69e5 | 1.84e5 | 2.26e5 | 2.34e5 | 18410 | inactive |
| Acyp2 (GeneID 41910) | 1 | 2.34e5 | 2.09e5 | 2.09e5 | 2.15e5 | 17245 | inactive |
| CG9932 (GeneID 34701) | 1 | 1.18e5 | 1.20e5 | 1.04e5 | 1.16e5 | 9160 | inactive |
| CG7739 (GeneID 39684) | 1 | 1.96e5 | 2.10e5 | 2.50e5 | 2.21e5 | 8385 | inactive |
| TTLL12 (GeneID 35732) | 1 | 2.65e5 | 2.32e5 | 2.51e5 | 2.84e5 | 16850 | inactive |
| Tfb1 (GeneID 36598) | 1 | 1.06e5 | 90265 | 89405 | 86870 | 7895 | inactive |
| CG11878 (GeneID 43050) | 1 | 1.53e5 | 1.64e5 | 2.00e5 | 2.09e5 | 13390 | inactive |
| Acsx4 (GeneID 42355) | 1 | 1.89e5 | 1.59e5 | 1.93e5 | 1.89e5 | 12215 | inactive |
| fj (GeneID 37089) | 1 | 91105 | 73555 | 90120 | 74445 | 5280 | inactive |
| tea (GeneID 36027) | 1 | 1.34e5 | 1.14e5 | 1.15e5 | 1.01e5 | 11220 | inactive |
| tea (GeneID 36027) | 2 | 1.97e5 | 1.47e5 | 1.76e5 | 1.70e5 | 13635 | inactive |
| CG14357 (GeneID 41716) | 1 | 2.75e5 | 2.53e5 | 2.50e5 | 2.65e5 | 21665 | inactive |
| CG15549 (GeneID 43665) | 1 | 1.20e5 | 1.17e5 | 1.56e5 | 1.42e5 | 11150 | inactive |
| CG44251 (GeneID 36429) | 1 | 86825 | 88285 | 1.12e5 | 95200 | 8700 | inactive |

Only “induced reporter light, run 1, well a”, for 4 of the entries above:
eIF4E3 (GeneID 38923) = 90285
CG17145 (GeneID 40215) = 1.12e5
phu (GeneID 41135) = 86445
Tmx3 (GeneID 39775) = 1.41e5
